Some of the results follow.
Columns and labels:
Assay in all cases: glycan array binding signal (z-score within array); higher = stronger binding
Conditions in all cases: glycan notation: IUPAC condensed, linker removed
[1] = target: Gal(b1-4)GlcNAc(b1-6)GalNAc
How it was run: (§1)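 From the Consortium for Functional Glycomics database, 3228 arrays were curated, keeping only those whose protein sequence was available. Binding is given as a within-array Z-score averaged across arrays sharing a protein sequence and across linkers. Negative Z-scores can be read as non-binding.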

[2] = target: Gal(b1-4)GlcNAc(b1-6)[Gal(b1-3)]GalNAc
How it was run: as §1

[3] = target: Gal(b1-4)GlcNAc(b1-6)[Gal(b1-4)GlcNAc(b1-3)]GalNAc
How it was run: as §1

Gal(b1-4)GlcNAc6P = target: Gal(b1-4)GlcNAc6P
How it was run: as §1

Gal(b1-6)Gal = target: Gal(b1-6)Gal
How it was run: as §1

Gal3S(b1-3)GalNAc = target: Gal3S(b1-3)GalNAc
How it was run: as §1

Gal3S(b1-3)GlcNAc = target: Gal3S(b1-3)GlcNAc
How it was run: as §1

[4] = target: Gal3S(b1-3)[Fuc(a1-4)]GlcNAc
How it was run: as §1

Gal3S(b1-4)Glc = target: Gal3S(b1-4)Glc
How it was run: as §1

Gal3S(b1-4)Glc6S = target: Gal3S(b1-4)Glc6S
How it was run: as §1

Gal3S(b1-4)GlcNAc = target: Gal3S(b1-4)GlcNAc
How it was run: as §1

[5] = target: Gal3S(b1-4)[Fuc(a1-3)]Glc6S
How it was run: as §1

[6] = target: Gal3S(b1-4)[Fuc(a1-3)]GlcNAc
How it was run: as §1

[7] = target: Gal3S(b1-4)[Fuc(a1-3)]GlcNAc6S
How it was run: as §1

Gal3S4S(b1-4)GlcNAc = target: Gal3S4S(b1-4)GlcNAc
How it was run: as §1

Gal3S6S(b1-4)GlcNAc = target: Gal3S6S(b1-4)GlcNAc
How it was run: as §1

Gal3S6S(b1-4)GlcNAc6S = target: Gal3S6S(b1-4)GlcNAc6S
How it was run: as §1

Gal4S(b1-4)GlcNAc = target: Gal4S(b1-4)GlcNAc
How it was run: as §1

Gal4S6S(b1-4)GlcNAc = target: Gal4S6S(b1-4)GlcNAc
How it was run: as §1

Gal6P(b1-4)GlcNAc = target: Gal6P(b1-4)GlcNAc
How it was run: as §1

Gal6S(b1-3)GlcNAc = target: Gal6S(b1-3)GlcNAc
How it was run: as §1

Gal6S(b1-3)GlcNAc6S = target: Gal6S(b1-3)GlcNAc6S
How it was run: as §1

Gal6S(b1-4)Glc = target: Gal6S(b1-4)Glc
How it was run: as §1

Gal6S(b1-4)Glc6S = target: Gal6S(b1-4)Glc6S
How it was run: as §1

Gal6S(b1-4)GlcNAc = target: Gal6S(b1-4)GlcNAc
How it was run: as §1

Gal6S(b1-4)GlcNAc6S = target: Gal6S(b1-4)GlcNAc6S
How it was run: as §1

GalNAc(a1-3)Gal = target: GalNAc(a1-3)Gal
How it was run: as §1

GalNAc(a1-3)GalNAc = target: GalNAc(a1-3)GalNAc
How it was run: as §1

[8] = target: GalNAc(a1-3)GalNAc(b1-3)Gal(a1-4)Gal(b1-4)Glc
How it was run: as §1

[9] = target: GalNAc(a1-3)GalNAc(b1-3)Gal(a1-4)Gal(b1-4)GlcNAc
How it was run: as §1

GalNAc(b1-3)Gal = target: GalNAc(b1-3)Gal
How it was run: as §1

[10] = target: GalNAc(b1-3)Gal(a1-4)Gal(b1-4)GlcNAc
How it was run: as §1

[11] = target: GalNAc(b1-3)Gal(a1-4)Gal(b1-4)GlcNAc(b1-3)Gal(b1-4)Glc
How it was run: as §1

[12] = target: GalNAc(b1-3)Gal(a1-6)Gal(b1-4)Glc
How it was run: as §1

GalNAc(b1-3)GalNAc = target: GalNAc(b1-3)GalNAc
How it was run: as §1

GalNAc(b1-3)GlcNAc = target: GalNAc(b1-3)GlcNAc
How it was run: as §1

GalNAc(b1-4)Gal(b1-4)Glc = target: GalNAc(b1-4)Gal(b1-4)Glc
How it was run: as §1

GalNAc(b1-4)GlcNAc = target: GalNAc(b1-4)GlcNAc
How it was run: as §1

B1: OS9 (Arabidopsis thaliana) (protein)
chain: MRGSHHHHHHGMASMTGGQQMGRDLYDDDDKSRLQIFPAHLVGTFSRNNREPKYKIEFLPEDSPFHPGDNLESMVMLDKHGNRFLCYLPKEEKATSGWTSSQQNISTVMMETQQLVKLKTPDELLQPLSEKCLFRQEGWWSYEFCHQKYVRQLHVEDENKIVQEFFLGTFDPEATAAFNQTVSDASTDASQRYHSHVYTNGTTCDLTGSPREVEVRFVCAETRAMVTSITELSTCKYALTVQCPTLCKHPLFQLEKPVSHTIHCNAIPVEEDATRNKEEQAVDESPKMIADS
glycan array binding signal (z-score) [1]: -0.314
glycan array binding signal (z-score) [2]: -0.191
glycan array binding signal (z-score) [3]: -0.154
glycan array binding signal (z-score) (Gal(b1-4)GlcNAc6P): -0.486
glycan array binding signal (z-score) (Gal(b1-6)Gal): -0.669
glycan array binding signal (z-score) (Gal3S(b1-3)GalNAc): -0.498
glycan array binding signal (z-score) (Gal3S(b1-3)GlcNAc): -0.226
glycan array binding signal (z-score) [4]: -0.48
glycan array binding signal (z-score) (Gal3S(b1-4)Glc): 0.638
glycan array binding signal (z-score) (Gal3S(b1-4)Glc6S): 0.366
glycan array binding signal (z-score) (Gal3S(b1-4)GlcNAc): 0.259
glycan array binding signal (z-score) [5]: 0.692
glycan array binding signal (z-score) [6]: 0.663
glycan array binding signal (z-score) [7]: -0.255
glycan array binding signal (z-score) (Gal3S4S(b1-4)GlcNAc): 0.916
glycan array binding signal (z-score) (Gal3S6S(b1-4)GlcNAc): -0.744
glycan array binding signal (z-score) (Gal3S6S(b1-4)GlcNAc6S): 1.93
glycan array binding signal (z-score) (Gal4S(b1-4)GlcNAc): -0.85
glycan array binding signal (z-score) (Gal4S6S(b1-4)GlcNAc): -0.425
glycan array binding signal (z-score) (Gal6P(b1-4)GlcNAc): -0.696
glycan array binding signal (z-score) (Gal6S(b1-3)GlcNAc): -0.382
glycan array binding signal (z-score) (Gal6S(b1-3)GlcNAc6S): -0.07
glycan array binding signal (z-score) (Gal6S(b1-4)Glc): -0.399
glycan array binding signal (z-score) (Gal6S(b1-4)Glc6S): -0.724
glycan array binding signal (z-score) (Gal6S(b1-4)GlcNAc): -0.895
glycan array binding signal (z-score) (Gal6S(b1-4)GlcNAc6S): -0.428
glycan array binding signal (z-score) (GalNAc(a1-3)Gal): -0.979
glycan array binding signal (z-score) (GalNAc(a1-3)GalNAc): -0.783
glycan array binding signal (z-score) [8]: -1.01
glycan array binding signal (z-score) [9]: -0.458
glycan array binding signal (z-score) (GalNAc(b1-3)Gal): 1.46
glycan array binding signal (z-score) [10]: 0.917
glycan array binding signal (z-score) [11]: 0.833
glycan array binding signal (z-score) [12]: 0.013
glycan array binding signal (z-score) (GalNAc(b1-3)GalNAc): 0.839
glycan array binding signal (z-score) (GalNAc(b1-3)GlcNAc): 0.076
glycan array binding signal (z-score) (GalNAc(b1-4)Gal(b1-4)Glc): 2.57
glycan array binding signal (z-score) (GalNAc(b1-4)GlcNAc): 0.268

Reference: the supplement of paper PMC8728848
